Experimental data published in paper PMC4330390 (Nucleic Acids Research, 2015).
No constants are given. Whether binding was seen depends on the method and setting. Some binding calls cover weakened binding; strength is not graded here.

What was measured:
[1] = molecular target: T1, NXF1^ΔNΔUBA (Homo sapiens NXF1 residues 96-555) (human) (UniProt Q9UBU9); experiment: co-purification of co-expressed proteins; NXF1 constructs (wild type and mutants) made in E. coli with NXT1 and purified; NXT1 found with the purified NXF1
T1 sequence: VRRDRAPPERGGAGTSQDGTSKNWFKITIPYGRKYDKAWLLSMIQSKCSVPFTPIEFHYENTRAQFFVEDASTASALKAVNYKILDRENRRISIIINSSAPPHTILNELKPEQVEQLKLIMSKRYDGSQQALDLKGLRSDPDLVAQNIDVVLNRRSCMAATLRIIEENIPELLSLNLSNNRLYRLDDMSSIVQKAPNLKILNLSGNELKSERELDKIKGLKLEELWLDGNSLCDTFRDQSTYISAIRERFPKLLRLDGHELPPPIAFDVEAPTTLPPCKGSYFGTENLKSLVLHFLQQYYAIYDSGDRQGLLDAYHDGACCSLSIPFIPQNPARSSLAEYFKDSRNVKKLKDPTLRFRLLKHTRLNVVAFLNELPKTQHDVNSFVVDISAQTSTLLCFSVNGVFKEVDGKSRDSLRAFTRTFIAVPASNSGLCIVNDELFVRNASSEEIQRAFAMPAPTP

[2] = molecular target: T2, NXF1^ΔNΔUBA+3A (Ile360 + Phe362 + Val364 to alanine) (human) (UniProt Q9UBU9); experiment: as above
T2 sequence: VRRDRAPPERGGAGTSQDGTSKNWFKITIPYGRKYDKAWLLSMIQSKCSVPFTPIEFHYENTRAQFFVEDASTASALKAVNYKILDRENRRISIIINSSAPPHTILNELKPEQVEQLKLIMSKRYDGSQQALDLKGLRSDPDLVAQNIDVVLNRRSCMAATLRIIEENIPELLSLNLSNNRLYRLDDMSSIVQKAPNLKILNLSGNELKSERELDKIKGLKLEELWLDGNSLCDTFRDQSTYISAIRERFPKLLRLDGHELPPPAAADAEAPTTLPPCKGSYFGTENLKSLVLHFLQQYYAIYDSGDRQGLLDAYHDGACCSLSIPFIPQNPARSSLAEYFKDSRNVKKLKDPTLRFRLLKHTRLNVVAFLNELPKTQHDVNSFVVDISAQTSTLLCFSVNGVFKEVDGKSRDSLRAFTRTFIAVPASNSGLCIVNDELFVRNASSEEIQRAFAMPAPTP

[3] = molecular target: T1, NXF1^ΔNΔUBA (Homo sapiens NXF1 residues 96-555) (human); experiment: crystal structure; crystals of the purified NXF1^ΔNΔUBA:NXT1 complex, 18°C, 9% PEG 6000, 1 M LiCl, 0.1 M Na citrate pH 5.1; P1, 3.4 Å, two copies of the complex in the asymmetric unit; both purified

Measured: binding

B1: H. sapiens NXT1 (protein, UniProt Q9UKK6 2-140)
chain: ASVDFKTYVDQACRAAEEFVNVYYTTMDKRRRLLSRLYMGTATLVWNGNAVSGQESLSEFFEMLPSSEFQISVVDCQPVHDEATPSQTTVLVVICGSVKFEGNKQRDFNQNFILTAQASPSNTVWKIASDCFRFQDWAS
binds: all assays above
